Assay results published in PubChem BioAssay AID1487 (National Center for Advancing Translational Sciences (NCATS), 2009).
Some of the results follow. Further columns of the screen follow, without active or inactive calls. Most of these compounds were active or inconclusive in the main read-out, so they are no random draw. Words in brackets tell the shape of the fitted curve; partial curves, single points and poor fits give uncertain potencies.

Assay: qHTS Assay for Modulators of Lamin A Splicing
Conditions: HeLa LMNA splicing GFP/RFP minigene ratio, 48 h
In short: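 Read-out is the ratio of GFP to DsRed2 object intensity, acquired by 488 nm laser-scanning cytometry on HeLa lamin A-EGFP minigene reporter cells. Compound incubation 48 hrs at 37 °C in Opti-MEM with 2% FBS; DMSO 0.5% final.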

[1] = measured here: RFP viability control channel
[2] = measured here: GFP splicing reporter channel

Row | Compound | AC50 [1] | AC50 [2]
1 | CCOC(=O)c1cnc(SCc2ccc(C(C)(C)C)cc2)nc1N | 14.1 µM [rising, single point] | –
2 | CCNC(=O)CCc1nc(-c2ccc(C(C)(C)C)cc2)no1 | 17.8 µM [rising, single point] | 12.6 µM [rising, single point]
3 | CN1CCN(c2ccc(Cl)cc2NC(=O)C2COc3ccccc3O2)CC1 (stereo not drawn) | 7.08 µM [rising, full curve, poor fit] | –
4 | CN1CCc2c(sc(NC(=O)CSc3ccccc3)c2-c2nc3ccccc3s2)C1 | 20 µM [falling, partial curve, poor fit] | –
5 | O=C(NCCCc1ccccc1)Nc1cccc(Cl)c1 | 15.8 µM [rising, partial curve] | –
6 | COCCSc1ccccc1C(=O)N1CCN(c2ccccc2)CC1 | 1.41 µM [rising, full curve, poor fit] | 0.316 µM [rising, full curve, poor fit]
7 | Cc1cc(NC(=S)N(CCCN2CCOCC2)Cc2ccco2)ccc1Cl | 20 µM [rising, partial curve, poor fit] | –
8 | CC(=O)c1c(C)oc2c1cc(NS(=O)(=O)c1ccc(Br)cc1)c1ccccc12 | 0.0891 µM [rising, full curve, poor fit] | –
9 | CCCCNC(=O)c1ccc2c(c1)ncn2-c1cc(OC)ccc1OC | 1.41 µM [falling, full curve, poor fit] | –
10 | CCc1ccc2c(c1)C(=O)C(=O)N2CC(=O)Nc1ccc(NC(=O)c2ccccn2)cc1 | 11.2 µM [falling, single point] | –
11 | Cc1cc(C)n(CC(C)C(=O)O)n1 (stereo not drawn) | 5.01 µM [falling, partial curve] | –
12 | Nc1cccc(C(=O)OCC(=O)NC2CCCc3ccccc32)c1 (stereo not drawn) | – | 6.31 µM [rising, single point]
13 | COc1ccc2[nH]cc(CCNc3nc(-c4cccnc4)nc4ccccc34)c2c1 | 20 µM [falling, partial curve] | 14.1 µM [falling, partial curve]
14 | COC(=O)c1ccc(NC(=O)CCn2cnnn2)cc1 | 3.16 µM [falling, partial curve, poor fit] | –
15 | CCc1ccccc1NNC(=O)c1cc(C)on1 | – | 35.5 µM [rising, single point]
16 | CCn1cc(/C=C/C(=O)Nc2ccc(C)cc2Br)cn1 | 35.5 µM [rising, single point] | 3.16 µM [rising, single point]
17 | Cc1cc(C)c(S(=O)(=O)Nc2ccc3c4c(cccc24)CC3)c(C)c1 | 1.26 µM [falling, full curve] | 1 µM [falling, full curve]
18 | COCCNC(=O)CCCn1c(=O)c2cc(OC)c(OC)cc2n(CC(=O)c2ccccc2)c1=O | – | 0.562 µM [falling, full curve, poor fit]

Row | Compound | AC50 [1] | AC50 [2]
19 | Cc1ccc(C)c(NC(=S)NCc2ccc3[nH]c4c(c3c2)CCCC4)c1 | 35.5 µM [rising, single point] | 35.5 µM [rising, single point]
20 | Cc1ccc(C)c(OCCCCn2cnc3ccccc3c2=O)c1 | 11.2 µM [rising, partial curve] | –
21 | COc1ccccc1/C=C/CN1CCC(CO)(Cc2ccccc2)CC1 | 1.26 µM [falling, full curve] | 0.631 µM [falling, full curve, poor fit]
22 | Cc1ccc(-n2nnnc2CNC(=O)c2cc(C(F)(F)F)cc(C(F)(F)F)c2)cc1C | 0.708 µM [rising, full curve, poor fit] | 0.708 µM [rising, full curve, poor fit]
23 | COCCNC(=O)C(c1ccco1)N(Cc1ccc(OC)cc1)C(=O)Cn1nnc2ccccc21 (stereo not drawn) | 0.00447 µM [falling, full curve, poor fit] | 0.00447 µM [falling, full curve, poor fit]
24 | CCCOc1cc(C)nc(-c2ccccc2O)n1 | 0.708 µM [falling, partial curve, poor fit] | –
25 | O=C(Cn1nc(C(F)(F)F)c2c1CCCC2)Nc1ccc(Br)cc1 | 3.98 µM [falling, partial curve] | 5.62 µM [falling, partial curve]
26 | CCOC(=O)c1c(NC(=O)CSc2nnc(C)c(=O)[nH]2)sc2c1CCCC2 | 0.178 µM [falling, full curve] | –
27 | COc1ccc(S(=O)(=O)Nc2ccc(-c3cn4c(C)csc4n3)cc2)cc1 | – | 0.562 µM [rising, full curve]
28 | CCOC(=O)N1CCN(CC(=O)Nc2ccc([N+](=O)[O-])cc2C(=O)Nc2ccccc2F)CC1 | 14.1 µM [rising, partial curve] | –
29 | C=CCNC(=O)C1CC1(c1ccccc1)c1ccccc1 (stereo not drawn) | 0.316 µM [falling, full curve, poor fit] | –
30 | Cc1cc(Oc2ccccc2)nc(SCC(=O)Nc2ccc(Cl)c(Cl)c2)n1 | 7.94 µM [rising, partial curve] | –
31 | CC1CCN(CC(C)CNC(=O)c2cc(-c3ccccn3)nc3ccccc23)CC1 (stereo not drawn) | 35.5 µM [falling, single point] | 20 µM [falling, single point]
32 | CCC(=O)NCc1csc(-c2cccs2)n1 | 7.08 µM [falling, partial curve, poor fit] | –
33 | COc1ccc(C(CNC(=O)c2ccc(N3CCCC3=O)cc2)N(C)C)cc1 (stereo not drawn) | 14.1 µM [rising, single point] | –
34 | CC(=O)OCC(=O)[C@@]1(OC(C)=O)[C@@H](C)C[C@H]2[C@@H]3C[C@H](F)C4=CC(=O)C=C[C@]4(C)[C@@]3(F)[C@@H](O)C[C@@]21C | 0.000891 µM [falling, full curve, poor fit] | 4.47 µM [falling, single point]
35 | Nc1ccc2c(c1)COc1ccccc1O2 | 15.8 µM [rising, partial curve] | –
36 | COCCNC(C(=O)Nc1ccc([N+](=O)[O-])cc1Br)c1ccccc1 (stereo not drawn) | – | 17.8 µM [rising, single point]

Part of the list above in order of heavy-atom count, low to high:
Row | Compound | AC50 [1] | AC50 [2]
29 | C=CCNC(=O)C1CC1(c1ccccc1)c1ccccc1 (stereo not drawn) | 0.316 µM [falling, full curve, poor fit] | –
21 | COc1ccccc1/C=C/CN1CCC(CO)(Cc2ccccc2)CC1 | 1.26 µM [falling, full curve] | 0.631 µM [falling, full curve, poor fit]
27 | COc1ccc(S(=O)(=O)Nc2ccc(-c3cn4c(C)csc4n3)cc2)cc1 | – | 0.562 µM [rising, full curve]
